These are yes or no findings as the source states them, for the method shown. In cells and extracts the contact can be indirect. Some binding calls cover weakened binding; strength is not graded here. Where a sequence is shown, tags or fusion partners need not be part of it.
Tests used:
GFP::3xFLAG::HRDE-1 = target: T1, GFP::3xFLAG::HRDE-1 (C. elegans, UniProt Q09249 1-1032); experiment: co-IP; lysate of adult animals; anti-FLAG beads precipitate GFP::3xFLAG::HRDE-1, HRDE-2::2xTy1::GFP detected with anti-Ty1; wild-type, mut-2 mutant and hrde-1(HK-AA) backgrounds; band intensities by ImageJ normalized to HRDE-1 immunoprecipitated and to wild-type
T1 construct: HRDE-1/WAGO-9, germline nuclear Argonaute, C. elegans, tagged in the worm strain; Tag ends are read from the strain notation GFP::3xFLAG::HRDE-1; also called HRDE-1/WAGO-9; wild-type HRDE-1; source: C. elegans strain hrde-1(tor125[GFP::3xFLAG::hrde-1]), adult animals, in lysate; not shown: GFP, N-terminal, kept; 3xFLAG, N-terminal, kept
T1 sequence (looked up): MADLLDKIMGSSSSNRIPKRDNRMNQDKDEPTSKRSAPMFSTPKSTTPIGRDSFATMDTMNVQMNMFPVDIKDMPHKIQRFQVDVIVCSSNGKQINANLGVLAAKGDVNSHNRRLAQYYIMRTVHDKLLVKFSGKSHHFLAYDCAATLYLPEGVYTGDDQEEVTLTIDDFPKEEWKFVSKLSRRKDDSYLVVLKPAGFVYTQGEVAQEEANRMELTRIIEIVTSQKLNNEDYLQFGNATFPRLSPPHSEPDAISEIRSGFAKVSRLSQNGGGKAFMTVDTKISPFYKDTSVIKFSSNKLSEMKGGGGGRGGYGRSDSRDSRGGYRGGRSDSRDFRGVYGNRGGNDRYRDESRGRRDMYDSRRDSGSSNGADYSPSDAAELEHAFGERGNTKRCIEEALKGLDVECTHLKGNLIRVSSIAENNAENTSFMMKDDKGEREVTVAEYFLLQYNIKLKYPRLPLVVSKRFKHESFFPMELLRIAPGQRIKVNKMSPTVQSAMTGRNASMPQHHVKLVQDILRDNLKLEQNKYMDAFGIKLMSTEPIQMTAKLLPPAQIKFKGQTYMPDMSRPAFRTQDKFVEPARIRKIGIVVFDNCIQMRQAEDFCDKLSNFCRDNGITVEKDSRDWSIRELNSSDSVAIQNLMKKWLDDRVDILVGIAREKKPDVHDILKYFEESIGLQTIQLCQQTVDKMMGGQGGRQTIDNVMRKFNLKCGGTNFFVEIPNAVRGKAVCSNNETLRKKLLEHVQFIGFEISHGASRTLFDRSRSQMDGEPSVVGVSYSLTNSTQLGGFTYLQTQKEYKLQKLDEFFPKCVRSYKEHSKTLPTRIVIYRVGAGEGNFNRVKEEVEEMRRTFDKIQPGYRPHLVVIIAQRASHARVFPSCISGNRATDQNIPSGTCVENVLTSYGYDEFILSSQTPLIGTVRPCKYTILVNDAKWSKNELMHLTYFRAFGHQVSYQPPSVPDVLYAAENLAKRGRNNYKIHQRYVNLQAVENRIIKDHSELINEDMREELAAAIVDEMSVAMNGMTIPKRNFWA

[1] = target: T2, SIMR-1::mCherry::2xHA (C. elegans) (UniProt O01477); experiment: co-IP; lysate of ~3500 synchronized adult animals; IP of SIMR-1 probing for HRDE-2 and vice versa; IP buffer 50 mM Tris-Cl pH 7.5, 100 mM KCl, 2.5 mM MgCl2, 0.1% Nonidet P40 substitute; 4 °C, 1 h; western blot
T2 sequence: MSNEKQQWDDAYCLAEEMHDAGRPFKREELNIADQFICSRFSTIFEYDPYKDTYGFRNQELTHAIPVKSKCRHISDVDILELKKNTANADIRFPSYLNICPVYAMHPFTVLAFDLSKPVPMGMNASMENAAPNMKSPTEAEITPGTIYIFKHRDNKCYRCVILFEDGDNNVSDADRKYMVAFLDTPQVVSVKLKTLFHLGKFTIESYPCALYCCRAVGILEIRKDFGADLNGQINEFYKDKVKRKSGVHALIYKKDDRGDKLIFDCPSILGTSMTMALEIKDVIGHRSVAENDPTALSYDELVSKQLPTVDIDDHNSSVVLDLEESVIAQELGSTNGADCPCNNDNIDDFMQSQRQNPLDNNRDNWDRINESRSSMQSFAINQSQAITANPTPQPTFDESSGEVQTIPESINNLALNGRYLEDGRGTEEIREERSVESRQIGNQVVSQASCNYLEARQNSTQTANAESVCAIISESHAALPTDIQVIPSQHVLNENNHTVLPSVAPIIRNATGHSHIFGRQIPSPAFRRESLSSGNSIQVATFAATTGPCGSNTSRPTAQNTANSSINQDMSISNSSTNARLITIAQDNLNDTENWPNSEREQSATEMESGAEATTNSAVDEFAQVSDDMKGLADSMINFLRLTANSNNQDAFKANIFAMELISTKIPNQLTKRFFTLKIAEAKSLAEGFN

[2] = target: T3, HRDE-2::2xTy1::GFP (C. elegans) (UniProt Q22058); experiment: as above
T3 sequence: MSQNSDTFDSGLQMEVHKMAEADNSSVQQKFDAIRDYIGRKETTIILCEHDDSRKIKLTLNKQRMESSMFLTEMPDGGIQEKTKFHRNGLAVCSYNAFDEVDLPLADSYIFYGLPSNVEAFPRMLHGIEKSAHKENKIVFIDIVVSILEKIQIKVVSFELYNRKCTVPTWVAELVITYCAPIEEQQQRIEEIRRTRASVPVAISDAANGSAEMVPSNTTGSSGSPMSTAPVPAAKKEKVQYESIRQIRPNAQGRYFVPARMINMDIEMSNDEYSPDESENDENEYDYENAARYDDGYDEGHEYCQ

| Binder | binding (GFP::3xFLAG::HRDE-1) | binding [1] | binding [2] |
| --- | --- | --- | --- |
| HRDE-2::2xTy1::GFP (natural protein, C. elegans, UniProt Q22058 1-305, looked up, HRDE-2 (HRDE-2/ENRI-3), C. elegans, tagged in the worm strain; Tag ends are read from the strain notation HRDE-2::2xTy1::GFP; also called HRDE-2/ENRI-3; source: C. elegans strain hrde-2/enri-3(tag1660[hrde-2/enri-3::2xTy1::GFP]), adult animals, in lysate; not shown: 2xTy1, C-terminal, kept; GFP, C-terminal, kept) MSQNSDTFDSGLQMEVHKMAEADNSSVQQKFDAIRDYIGRKETTIILCEHDDSRKIKLTLNKQRMESSMFLTEMPDGGIQEKTKFHRNGLAVCSYNAFDEVDLPLADSYIFYGLPSNVEAFPRMLHGIEKSAHKENKIVFIDIVVSILEKIQIKVVSFELYNRKCTVPTWVAELVITYCAPIEEQQQRIEEIRRTRASVPVAISDAANGSAEMVPSNTTGSSGSPMSTAPVPAAKKEKVQYESIRQIRPNAQGRYFVPARMINMDIEMSNDEYSPDESENDENEYDYENAARYDDGYDEGHEYCQ | binds | no binding | – |
| SIMR-1::mCherry::2xHA (protein, UniProt O01477 1-691) MSNEKQQWDDAYCLAEEMHDAGRPFKREELNIADQFICSRFSTIFEYDPYKDTYGFRNQELTHAIPVKSKCRHISDVDILELKKNTANADIRFPSYLNICPVYAMHPFTVLAFDLSKPVPMGMNASMENAAPNMKSPTEAEITPGTIYIFKHRDNKCYRCVILFEDGDNNVSDADRKYMVAFLDTPQVVSVKLKTLFHLGKFTIESYPCALYCCRAVGILEIRKDFGADLNGQINEFYKDKVKRKSGVHALIYKKDDRGDKLIFDCPSILGTSMTMALEIKDVIGHRSVAENDPTALSYDELVSKQLPTVDIDDHNSSVVLDLEESVIAQELGSTNGADCPCNNDNIDDFMQSQRQNPLDNNRDNWDRINESRSSMQSFAINQSQAITANPTPQPTFDESSGEVQTIPESINNLALNGRYLEDGRGTEEIREERSVESRQIGNQVVSQASCNYLEARQNSTQTANAESVCAIISESHAALPTDIQVIPSQHVLNENNHTVLPSVAPIIRNATGHSHIFGRQIPSPAFRRESLSSGNSIQVATFAATTGPCGSNTSRPTAQNTANSSINQDMSISNSSTNARLITIAQDNLNDTENWPNSEREQSATEMESGAEATTNSAVDEFAQVSDDMKGLADSMINFLRLTANSNNQDAFKANIFAMELISTKIPNQLTKRFFTLKIAEAKSLAEGFN | – | – | no binding |

From paper PMC10834429, “HRDE-2 drives small RNA specificity for the nuclear Argonaute protein HRDE-1” (Nature Communications, 2024)
